No constants are given. Whether binding was seen depends on the method and setting. In cells and extracts the contact can be indirect. These calls come from enrichment with a bait or labelling near it, and not all partners need be listed.
Molecular target: T1, BPP43_05035 (Brachyspira pilosicoli strain P43/6/78)
T1 sequence: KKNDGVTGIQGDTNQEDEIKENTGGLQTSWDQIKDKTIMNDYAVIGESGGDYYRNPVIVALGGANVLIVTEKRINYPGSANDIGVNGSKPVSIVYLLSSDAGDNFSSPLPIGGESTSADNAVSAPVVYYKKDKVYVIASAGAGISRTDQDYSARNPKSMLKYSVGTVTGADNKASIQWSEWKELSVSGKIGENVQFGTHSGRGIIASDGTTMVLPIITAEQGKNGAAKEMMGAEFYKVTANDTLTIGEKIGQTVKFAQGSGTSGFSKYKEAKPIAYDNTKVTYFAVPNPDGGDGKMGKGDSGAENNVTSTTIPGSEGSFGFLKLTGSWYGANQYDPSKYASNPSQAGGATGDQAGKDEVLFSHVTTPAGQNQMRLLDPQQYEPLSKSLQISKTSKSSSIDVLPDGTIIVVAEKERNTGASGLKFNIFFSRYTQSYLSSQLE
Test: affinity purification with mass spectrometry; 100 µg purified recombinant BPP43_05035 incubated with 1 mL lysate of differentiated Caco-2 cells (25 mM Tris-HCl, 150 mM NaCl, 1% Triton X-100, pH 7.4) overnight at 4°C; precipitated with BPP43_05035-specific rabbit antibody and sheep anti-rabbit IgG Dynabeads; bands cut from the SDS-PAGE gel and identified by mass spectrometry; controls: pre-serum and unconjugated beads; only the target purified

Protein sequences, listed by entry. Tags and fused reporters are not part of them.
UniProt O14950: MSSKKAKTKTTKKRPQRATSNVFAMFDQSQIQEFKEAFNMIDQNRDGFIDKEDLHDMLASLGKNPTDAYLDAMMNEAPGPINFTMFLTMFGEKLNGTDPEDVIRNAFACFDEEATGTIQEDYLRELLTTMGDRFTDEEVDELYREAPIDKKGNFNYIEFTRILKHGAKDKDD
UniProt P35579: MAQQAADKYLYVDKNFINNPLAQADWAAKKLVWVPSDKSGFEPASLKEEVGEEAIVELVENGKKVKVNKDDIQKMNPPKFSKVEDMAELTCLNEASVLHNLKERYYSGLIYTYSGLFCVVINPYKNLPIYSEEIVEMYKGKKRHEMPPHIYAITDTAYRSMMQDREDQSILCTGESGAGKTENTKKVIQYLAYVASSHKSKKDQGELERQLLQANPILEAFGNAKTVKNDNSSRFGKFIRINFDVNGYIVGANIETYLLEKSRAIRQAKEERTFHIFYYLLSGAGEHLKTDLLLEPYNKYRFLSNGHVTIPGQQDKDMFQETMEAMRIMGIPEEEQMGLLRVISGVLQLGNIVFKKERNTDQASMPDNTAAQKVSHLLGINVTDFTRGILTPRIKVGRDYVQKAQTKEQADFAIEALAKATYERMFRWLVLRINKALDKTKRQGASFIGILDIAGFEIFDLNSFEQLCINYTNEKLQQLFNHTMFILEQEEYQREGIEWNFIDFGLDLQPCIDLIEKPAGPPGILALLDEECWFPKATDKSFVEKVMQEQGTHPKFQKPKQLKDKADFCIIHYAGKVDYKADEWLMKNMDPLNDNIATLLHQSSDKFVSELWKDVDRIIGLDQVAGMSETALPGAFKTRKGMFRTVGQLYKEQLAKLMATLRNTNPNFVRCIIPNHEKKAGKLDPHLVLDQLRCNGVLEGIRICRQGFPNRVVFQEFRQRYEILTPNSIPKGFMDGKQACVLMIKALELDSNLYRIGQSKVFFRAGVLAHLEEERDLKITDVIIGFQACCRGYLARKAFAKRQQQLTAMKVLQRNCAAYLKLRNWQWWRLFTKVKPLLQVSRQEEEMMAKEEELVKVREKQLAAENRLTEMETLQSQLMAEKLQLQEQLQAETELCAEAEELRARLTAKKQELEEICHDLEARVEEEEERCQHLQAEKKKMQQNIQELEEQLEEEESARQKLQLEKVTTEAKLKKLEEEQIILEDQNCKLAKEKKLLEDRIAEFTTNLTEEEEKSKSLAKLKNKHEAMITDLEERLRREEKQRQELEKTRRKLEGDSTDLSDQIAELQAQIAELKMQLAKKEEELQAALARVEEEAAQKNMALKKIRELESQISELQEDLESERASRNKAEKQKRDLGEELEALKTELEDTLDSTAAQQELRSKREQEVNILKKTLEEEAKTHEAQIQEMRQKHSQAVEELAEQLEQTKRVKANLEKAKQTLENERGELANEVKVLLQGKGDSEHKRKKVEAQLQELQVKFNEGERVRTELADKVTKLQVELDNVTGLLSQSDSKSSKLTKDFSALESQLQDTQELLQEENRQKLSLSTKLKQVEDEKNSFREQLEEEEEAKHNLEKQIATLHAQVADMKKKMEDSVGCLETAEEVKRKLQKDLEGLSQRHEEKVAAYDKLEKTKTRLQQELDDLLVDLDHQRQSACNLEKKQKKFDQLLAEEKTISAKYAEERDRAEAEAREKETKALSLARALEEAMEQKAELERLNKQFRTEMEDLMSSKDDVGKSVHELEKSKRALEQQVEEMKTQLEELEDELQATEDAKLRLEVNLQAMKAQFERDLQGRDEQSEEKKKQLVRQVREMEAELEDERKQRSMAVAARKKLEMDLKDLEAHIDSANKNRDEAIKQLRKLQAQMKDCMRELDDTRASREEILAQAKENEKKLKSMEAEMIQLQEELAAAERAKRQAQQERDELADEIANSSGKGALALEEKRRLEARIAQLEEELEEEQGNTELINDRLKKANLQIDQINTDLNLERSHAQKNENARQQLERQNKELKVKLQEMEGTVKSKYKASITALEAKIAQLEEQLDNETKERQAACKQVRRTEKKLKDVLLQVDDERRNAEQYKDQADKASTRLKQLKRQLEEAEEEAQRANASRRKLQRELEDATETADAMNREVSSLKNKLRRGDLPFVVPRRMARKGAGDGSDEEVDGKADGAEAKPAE

Substance: Myosin regulatory light-chain 12B (MYL12B, MLC2) (from UniProt O14950 1-172)
- binding: binds

Substance: Myosin-9 (MYH9) (from UniProt P35579 1-1960)
- binding: binds

— paper PMC11444514
